# Measurements reported in PubChem BioAssay AID493014 (National Center for Advancing Translational Sciences (NCATS), 2011).
# Hit rate of the full screen: of about 340,000 compounds, about 170 (0.05%) were called active. This list was built around the results that the source calls inconclusive (neither active nor inactive); the mix of calls is not that of the screen. Calls come from the whole dose curve; as a rule, active = well fitted inhibition curve with a large enough effect in the signal ratio, with a control signal flat (not every such curve was filed as active); inconclusive = small, poorly fitted or top-dose-only effect, or effect the other way, or a change in a side signal; inactive = flat fitted curve, though single readings scatter; the % refers to the signal ratio. A potency beside an inconclusive call is a rough fit, not a confirmed value.
# Experiment: qHTS Assay to Find Inhibitors of Chronic Active B-Cell Receptor Signaling;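 for activity change, negative = inhibition: plate controls were basal doxycycline-induced cells for no effect and cells given 10 µM MG132 for full effect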
# Settings: ABC-DLBCL IkBa-CBG/CBR reporter, luminescence ratio (green luciferase fused to IkBa over red control in TMD8 lymphoma cells), 4 h; activity change, negative = inhibition: at 46.1 µM (top of the series) unless noted
# Method in brief: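 TMD8 ABC-DLBCL cells carrying doxycycline-inducible green luciferase fused to IkappaBalpha plus unfused red luciferase were exposed to compounds (up to 46 uM) for 4 hrs at 37C. Activity came from the overlap-corrected green/red luminescence ratio.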
# Potency is the fitted concentration of half-maximal effect.
SMILES,"activity change, negative = inhibition",Potency
O=C(NCC(c1ccco1)N1CCCCC1)c1ccc(OCc2ccccc2)cc1 (stereo not given),inactive: 1.79%,–
Cc1sc2nc(SCC(=O)N3CCN(CCO)CC3)n(-c3ccccc3)c(=O)c2c1C,inconclusive: 5.93%,–
N#CCC(=O)Nc1ccc(C(=O)OCc2ccccc2Oc2ccccc2)cc1,inconclusive: -5.97%,–
c1ccc(-c2nc(-c3ccco3)cs2)nc1,inconclusive: 6.12%,–
CCOc1ccc(/C=C(\C#N)C(=O)Nc2ccccn2)cc1,inconclusive: 7.28%,–
COc1ccccc1C(=O)N/N=C(\C)CC(=O)Nc1ccccn1,inconclusive: -14%,–
Cc1onc(-c2ccccc2Cl)c1C(=O)NC(=S)Nc1ccc(C(C)(C)C)cc1,inconclusive: 5.02%,–
O=C(O)C1CCN(C(=O)COc2ccc3c4c(c(=O)oc3c2)CCC4)CC1,–,"inconclusive: 35.5 µM [falling, single point]"
Cc1ccc(NC(=O)CSc2nc3ccccc3c3nc(CCc4c(C)n[nH]c4C)nn23)cc1F,inconclusive: 0.508%,–
COC(=O)N1C(=O)[C@@](c2ccc(OC)cc2)(C(C)C)N1C(=O)OC,–,"inconclusive: 2.51 µM [falling, full curve, poor fit]"
CCn1c(COc2ccccc2)nnc1SCC(=O)CC(=O)Nc1ccccc1OC,inconclusive: -0.381%,–
O=C1CCC/C(=N/NC(=O)c2ccc(CN3c4cccc5cccc(c45)S3(=O)=O)cc2)C1,inconclusive: -1.77%,–
C/C(CC(=O)N(C(C)C)C(C)C)=N\NC(=O)c1ccccc1Br,–,"inconclusive: 20.6 µM [falling, partial curve]"
COc1ccc(CNC(=O)COC(=O)c2ccco2)cc1,inconclusive: 3.28%,–
O=C(CNC(=O)c1ccncc1)N/N=C/c1ccc(O)cc1O,inconclusive: -25.3%,–
CCn1ccc(C(=O)Nc2ccc3c(c2)CCC3)n1,inconclusive: 7.94%,–
Cc1cccc(-n2ncc3c(Nc4ccc(F)cc4)ncnc32)c1,inconclusive: 2.76%,–
C=CCNC(=S)N/N=C/c1ccc(-c2ccc(OC)cc2)o1,–,"inconclusive: 3.16 µM [cytotoxic, full curve]"
S=C(NC1CCCC1)N1CCN(c2ccccn2)CC1,inconclusive: 18.7%,–
CCOC(=O)N1CCN(C(=O)/C(=C/c2cccs2)NC(=O)c2cccs2)CC1,–,"inconclusive: 8.91 µM [falling, partial curve, poor fit]"
COc1cc2cc(CN(CCO)S(=O)(=O)c3ccccc3Cl)c(=O)[nH]c2cc1OC,inconclusive: -0.619%,–
COc1cccc(C2NC(CC(C)C)(C(=O)O)C3C(=O)N(Cc4ccccc4)C(=O)C23)c1O (stereo not given),inconclusive: 6.62%,–
Cc1ccc(Sc2cc(C)nc(-c3ccccn3)n2)cc1,–,"inconclusive: 14.1 µM [falling, partial curve, poor fit]"
O=C(NCc1ccc(Cl)cc1)C(=O)c1cn(CC(=O)N2CCOCC2)c2ccccc12,–,"inconclusive: 14.1 µM [falling, partial curve]"
CCCOc1cccc(C(=O)NC(=S)Nc2cccc(C(F)(F)F)c2)c1,–,"inconclusive: 5.8 µM [falling, partial curve, poor fit]"
COc1cccc(NC(=O)c2ccc(-n3cnnn3)cc2)c1,inconclusive: -24.8%,–
CCCC(=O)Nc1c2c(nn1-c1ccc(OC)cc1)CS(=O)C2 (stereo not given),–,"inconclusive: 29.1 µM [falling, single point]"

SMILES,"activity change, negative = inhibition",Potency
CC(O)CNc1ccc(-c2nn(C)c(=O)c3ccccc23)cc1[N+](=O)[O-] (stereo not given),–,"inconclusive: 20 µM [falling, single point]"
CCOc1ccc(C(=O)OCC(=O)Nc2cccc(S(=O)(=O)N3CCCC3)c2)cc1,inconclusive: -2.04%,–
Cc1ccc(C(=O)COC(=O)C2C3C=CC(C3)C2C(=O)OCC(=O)c2ccc(C)c(C)c2)cc1C (stereo not given),inconclusive: 0.692%,–
CCOC(=O)/C=C/C(=O)Nc1ccccc1C(=O)NC1CCCCC1,inactive: 2.56%,–
Cc1ccc(C)c(NC(=O)C2COc3ccccc3O2)c1 (stereo not given),inconclusive: 12.2%,–
Cc1ccc(Nc2nc(N)c3ccccc3n2)cc1C,–,"inconclusive: 35.5 µM [cytotoxic, single point]"
O=C(NC1CC1)c1sc2cc(Cl)ccc2c1Cl,inactive: 4.32%,–
N/C(=N\NC(=O)c1cccc(F)c1)c1cc2ccccc2oc1=O,–,"inconclusive: 20 µM [falling, single point]"
COc1ccc(CN2CCN(CCc3ccccc3)C(CCO)C2)cc1Cn1cncn1 (stereo not given),inconclusive: -4.49%,–
O=C(Nc1cccc2ccccc12)N1N=CCC1c1ccccc1 (stereo not given),inactive: -0.739%,–
Cc1ccc(NC(=O)CC(=O)c2ccccc2)cc1C,inconclusive: -23.7%,–
Cc1ccc(C(C(=O)NC2CCCCC2)N2CCCC2)cc1 (stereo not given),–,"inconclusive: 32.6 µM [falling, partial curve, poor fit]"
CC(=O)Nc1ccc(S(=O)(=O)N2CCCC2)cc1,inactive: 0.212%,–
O=C(CCC1CCCCC1)Nc1nccs1,inconclusive: 1.36%,–
Nc1nc2ccc(C(=O)NCCOC(=O)C3CCCCC3)cc2s1,inconclusive: 0.292%,–
Cc1ccc2[nH]c(=O)c(CN(CCc3ccccc3)C(c3nnnn3Cc3ccco3)C(C)C)cc2c1 (stereo not given),inconclusive: 2.29%,–
CCOc1ccc(NC(=O)CCNS(=O)(=O)c2cccs2)cc1,inconclusive: 7.21%,–
CCCc1nc2ccccc2c(=O)n1/N=C/c1ccc(O)c(O)c1,inconclusive: -8.71%,–
COc1cccc2cc(C(=O)Nc3cc(C)cc(C)c3)/c(=N/NS(=O)(=O)c3ccccc3)oc12,inconclusive: -19.6%,–
COC(=O)c1ccc(-c2ccc(C(c3c(C)[nH][nH]c3=O)c3c(C)[nH][nH]c3=O)o2)cc1,–,"inconclusive: 17.8 µM [falling, single point]"
CCN(CC)C(=O)CCCSc1nnc(Nc2ccccc2F)s1,–,"inconclusive: 31.6 µM [rising, partial curve]"
Cc1ccc(S(=O)(=O)Nc2ccc(NC(=O)c3cccs3)cc2)cc1,inconclusive: 4.45%,–
Cc1ccc(C(=O)NNC(=O)c2ccc(C)cc2)cc1,inactive: -10.3%,–
CCOC(=O)CC(=O)COc1nc2cc3c(nc2o1)CCCC3,inconclusive: -9.64%,–
N/C(=N\OC(=O)c1ccccc1)c1ccccn1,inconclusive: 200%,–
COc1cccc(C2/C(=C(/O)c3cnn(-c4ccccc4)c3C)C(=O)C(=O)N2CCN(C)C)c1OC (stereo not given),–,"inconclusive: 3.16 µM [rising, full curve, poor fit]"
O=C(/C=C/c1ccc(Br)cc1)NCc1cccs1,inconclusive: -8.83%,–

# Some of the entries so far, with bars between the fields.
SMILES | activity change, negative = inhibition | Potency
C=CCNC(=S)N/N=C/c1ccc(-c2ccc(OC)cc2)o1 | – | inconclusive: 3.16 µM [cytotoxic, full curve]
S=C(NC1CCCC1)N1CCN(c2ccccn2)CC1 | inconclusive: 18.7% | –
CCOC(=O)N1CCN(C(=O)/C(=C/c2cccs2)NC(=O)c2cccs2)CC1 | – | inconclusive: 8.91 µM [falling, partial curve, poor fit]
COc1cc2cc(CN(CCO)S(=O)(=O)c3ccccc3Cl)c(=O)[nH]c2cc1OC | inconclusive: -0.619% | –
COc1cccc(C2NC(CC(C)C)(C(=O)O)C3C(=O)N(Cc4ccccc4)C(=O)C23)c1O (stereo not given) | inconclusive: 6.62% | –
Cc1ccc(Sc2cc(C)nc(-c3ccccn3)n2)cc1 | – | inconclusive: 14.1 µM [falling, partial curve, poor fit]
O=C(NCc1ccc(Cl)cc1)C(=O)c1cn(CC(=O)N2CCOCC2)c2ccccc12 | – | inconclusive: 14.1 µM [falling, partial curve]
CCCOc1cccc(C(=O)NC(=S)Nc2cccc(C(F)(F)F)c2)c1 | – | inconclusive: 5.8 µM [falling, partial curve, poor fit]
COc1cccc(NC(=O)c2ccc(-n3cnnn3)cc2)c1 | inconclusive: -24.8% | –
CCCC(=O)Nc1c2c(nn1-c1ccc(OC)cc1)CS(=O)C2 (stereo not given) | – | inconclusive: 29.1 µM [falling, single point]
CC(O)CNc1ccc(-c2nn(C)c(=O)c3ccccc23)cc1[N+](=O)[O-] (stereo not given) | – | inconclusive: 20 µM [falling, single point]
CCOc1ccc(C(=O)OCC(=O)Nc2cccc(S(=O)(=O)N3CCCC3)c2)cc1 | inconclusive: -2.04% | –
Cc1ccc(C(=O)COC(=O)C2C3C=CC(C3)C2C(=O)OCC(=O)c2ccc(C)c(C)c2)cc1C (stereo not given) | inconclusive: 0.692% | –
CCOC(=O)/C=C/C(=O)Nc1ccccc1C(=O)NC1CCCCC1 | inactive: 2.56% | –
Cc1ccc(C)c(NC(=O)C2COc3ccccc3O2)c1 (stereo not given) | inconclusive: 12.2% | –
Cc1ccc(Nc2nc(N)c3ccccc3n2)cc1C | – | inconclusive: 35.5 µM [cytotoxic, single point]
O=C(NC1CC1)c1sc2cc(Cl)ccc2c1Cl | inactive: 4.32% | –
N/C(=N\NC(=O)c1cccc(F)c1)c1cc2ccccc2oc1=O | – | inconclusive: 20 µM [falling, single point]
COc1ccc(CN2CCN(CCc3ccccc3)C(CCO)C2)cc1Cn1cncn1 (stereo not given) | inconclusive: -4.49% | –
O=C(Nc1cccc2ccccc12)N1N=CCC1c1ccccc1 (stereo not given) | inactive: -0.739% | –
Cc1ccc(NC(=O)CC(=O)c2ccccc2)cc1C | inconclusive: -23.7% | –

# Next part.

SMILES,"activity change, negative = inhibition",Potency
COc1ccc(-n2c(C)cc(C(=O)CN3C(=O)NC4(CCc5ccccc54)C3=O)c2C)cc1 (stereo not given),inconclusive: -9.5%,–
Cc1ccc(COC(=O)Cc2coc3cc(O)ccc23)cc1,inconclusive: 0.41%,–
NCc1c(O)ccc2ccccc12,inconclusive: -2.2%,–
Cc1onc(-c2ccccc2)c1C(=O)N1CCN(C)CC1,inconclusive: 28.2%,–
Nc1ccc2c(c1)C(=O)C(=O)c1ccccc1-2,–,"inconclusive: 0.411 µM [falling, full curve, poor fit]"
CNc1nnc(-c2cc3cc(Cl)ccc3oc2=O)s1,–,"inconclusive: 2.06 µM [rising, partial curve, poor fit]"
Cc1cc(-c2nn(-c3ccccc3F)cc2CN2CCC(O)CC2)c(C)s1,–,"inconclusive: 3.55 µM [falling, full curve]"
COc1ccc2c(CC(=O)NCCN3C(=O)S/C(=C\c4cccnc4)C3=O)coc2c1,inactive: -16.4%,–
O=C(N/N=C/c1ccc(Br)s1)c1ccc([N+](=O)[O-])cc1,inconclusive: 2.93%,–
O=C(CS(=O)(=O)c1ccccc1)N1CCN(c2ccccc2)CC1,inconclusive: -2.68%,–
CN(C)c1ccc(N=c2sc3ccccc3n2C)cc1,inconclusive: 16.3%,–
O=C(NCc1ccccc1Br)c1ccco1,–,"inconclusive: 23.1 µM [falling, partial curve]"
CC(C)Cc1cc(C(=O)Nc2cccc(O)c2)no1,inconclusive: 325%,–
CCC(=O)Nc1nnc(S(=O)(=O)N(C)c2cc(C)cc(C)c2)s1,inconclusive: -0.556%,–
Cc1c(NC(=O)c2cnn3c2NC(c2ccc(Br)cc2)CC3C(F)(F)F)c(=O)n(-c2ccccc2)n1C (stereo not given),inactive: -27%,–
COc1ccc(-n2nc(C(=O)NCC(=O)N3CCN(c4ccccc4OC)CC3)c3ccccc3c2=O)cc1OC,inconclusive: 6.84%,–
COc1cc(C2C(C(=O)c3ccc(C)o3)=C(O)C(=O)N2c2cc(C)on2)ccc1O (stereo not given),inconclusive: 3.82%,–
COc1cc(C(C(=O)NC2CCCC2)N(CCO)C(=O)Cn2nnc(-c3ccc(C)o3)n2)ccc1O (stereo not given),inconclusive: -0.55%,–
CCCC(=O)n1nc(-c2ccco2)nc1SCc1ccccc1,–,"inconclusive: 16.4 µM [falling, partial curve]"
Cc1onc(-c2ccccc2)c1C(=O)Nc1sc2c(c1C#N)CCC2,inconclusive: 12.9%,–
COc1ccc(N2CCN(c3cc(C)c4cccc(C)c4n3)CC2)cc1,inactive: 0.658%,–
Cc1ccc(S(=O)(=O)N2CCCC2)cc1C(=O)NCCN1CCOCC1,inactive: 3.36%,–
Cn1c(SCC(=O)N2CCN(S(=O)(=O)c3ccccc3)CC2)nc2ccccc21,inactive: 6.96%,–
COCC(=O)N(C)C1(c2nnnn2CCOC(=O)Nc2ccc(Cl)cc2)CCCC1,inconclusive: 15.8%,–
O=C(/C=C/c1ccco1)N(Cc1ccccc1)C1CCS(=O)(=O)C1 (stereo not given),inconclusive: 5.67%,–
COCCNS(=O)(=O)c1cc(OC)c(Cl)cc1Cl,inconclusive: -3.96%,–
